Experimental data published in publication PMC12757429.
These are yes or no findings as the source states them, for the method shown. In cells and extracts the contact can be indirect. Some results given as binding are weak or reduced against the parent protein; the word gives no strength.

Amino acid sequences for entries named in this document (tags omitted).
UniProt O00487: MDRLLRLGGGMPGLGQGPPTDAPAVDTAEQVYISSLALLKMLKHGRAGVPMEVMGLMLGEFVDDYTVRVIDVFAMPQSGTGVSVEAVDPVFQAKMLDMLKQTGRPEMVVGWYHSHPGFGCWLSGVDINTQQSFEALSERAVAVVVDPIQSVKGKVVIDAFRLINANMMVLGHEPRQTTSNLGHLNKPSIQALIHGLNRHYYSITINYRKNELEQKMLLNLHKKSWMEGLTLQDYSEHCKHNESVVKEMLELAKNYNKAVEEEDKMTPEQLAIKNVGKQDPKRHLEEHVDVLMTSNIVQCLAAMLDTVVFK

Biological target: PSMD14 in LUAD cells (co-immunoprecipitation) (human (in human LUAD cell lines)) (UniProt O00487)
Assay: co-IP; LUAD cells lysed in NP-40 buffer with protease inhibitors and 20 uM MG-132; cleared lysates; Western blot

B1: Hyaluronan-mediated motility receptor (HMMR) (protein, UniProt O75330 1-724)
chain: MSFPKAPLKRFNDPSGCAPSPGAYDVKTLEVLKGPVSFQKSQRFKQQKESKQNLNVDKDTTLPASARKVKSSESKESQKNDKDLKILEKEIRVLLQERGAQDRRIQDLETELEKMEARLNAALREKTSLSANNATLEKQLIELTRTNELLKSKFSENGNQKNLRILSLELMKLRNKRETKMRGMMAKQEGMEMKLQVTQRSLEESQGKIAQLEGKLVSIEKEKIDEKSETEKLLEYIEEISCASDQVEKYKLDIAQLEENLKEKNDEILSLKQSLEENIVILSKQVEDLNVKCQLLEKEKEDHVNRNREHNENLNAEMQNLKQKFILEQQEREKLQQKELQIDSLLQQEKELSSSLHQKLCSFQEEMVKEKNLFEEELKQTLDELDKLQQKEEQAERLVKQLEEEAKSRAEELKLLEEKLKGKEAELEKSSAAHTQATLLLQEKYDSMVQSLEDVTAQFESYKALTASEIEDLKLENSSLQEKAAKAGKNAEDVQHQILATESSNQEYVRMLLDLQTKSALKETEIKEITVSFLQKITDLQNQLKQQEEDFRKQLEDEEGRKAEKENTTAELTEEINKWRLLYEELYNKTKPFQLQLDAFEVEKQALLNEHGAAQEQLNKIRDSYAKLLGHQNLKQKIKHVVKLKDENSQLKSEVSKLRCQLAKKKQSETKLQEELNKVLGIKHFDPSKAFHHESKENFALKTPLKEGNTNCYRAPMECQESWK
With B1 as the binder, how does the binding read?
Its binding is “binds”.
